According to patent US20160166581A1 (priority 2014, published 2016):

Key:
[1] = test system: obese domestic cats with diabetes; details: individual diabetic cats #1-#5 on glargine insulin; 1.25 mg donepezil orally daily, 14 day period
Method: Five obese domestic cats with diabetes (average weight 14.2 lbs.) are on glargine insulin for glycemic control. […] All cats are being treated with glargine insulin in bid dosing schedule. […] Over a 14 day period morning blood glucose levels (prior to feeding) are recorded.

[2] = test system: horses with physical characteristics of EMS
[3] = 4 EMS horses, 4 week treatment 75 mg daily

## COc1cc2c(cc1OC)C(=O)C(CC1CCN(Cc3ccccc3)CC1)C2 (stereo not drawn) [donepezil]
[1]
  Morning blood glucose levels (prior to feeding) during treatment: 108 to 126 mg/dL
[2]; 4 EMS horses after 4 weeks 75 mg daily, 0.1 IU/kg IV insulin
  Hypoglycemic symptoms (sweating, agitation) after insulin: No hypoglycemic symptoms are observed
[2]; 4 EMS horses, 75 mg daily for 4 weeks
  Behavior of animals or feeding habits: No changes are observed
[2]; [3]
  Fasting blood glucose levels decreased on average: 25%
  Insulin sensitivity increased on average: 52%
[2]; after 4 week treatment
  Insulin sensitivity (in words): significantly improved
